PubChem BioAssay AID720505 – Drosophila RNAi Screening Center | 2013

Test: 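Knock-downs that reduce calcium influx once internal stores are emptied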 (primary screen)
Cell system: Drosophila S2R+ cells
Reagents: long dsRNA against Drosophila genes
Treatment: thapsigargin (2 µM) in calcium-free buffer to empty internal stores, then 2 mM calcium added back
Read-out: 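Fluo-4 signal in 384-well plates read on a FLIPR after thapsigargin (2 µM, calcium-free) store depletion and 2 mM calcium add-back; unnormalised mean endpoint per well; screen run twice, selected wells retested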
Scale: calcium signal and retest calcium signal: higher = more calcium entry after store depletion
Rule for the call: 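About 1500 genes called as lowering calcium entry, by varying amounts, judged against per-plate control wells with STIM1 as positive and Rho1 as negative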
Calls: active = called as lowering calcium entry; inactive = not called
The deposit covers about 20,000 reagents; below is an unselected part of those with a known target gene and a result. Over the whole deposit, about 2,100 (10%) are marked active. 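Raw plate signals without normalisation; calls rest on control-based scores that were not deposited; replicate 2 separates called from uncalled poorly.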 A plus sign joins genes that one reagent is predicted to hit. Not stated in the record: the amount of reagent, the time to read-out.

| Target gene | PubChem SID | calcium signal, replicate 1 | calcium signal, replicate 2 | retest calcium signal, replicate 1 | retest calcium signal, replicate 2 | Call |
| --- | --- | --- | --- | --- | --- | --- |
| CG18568 | SID104186560 | 184 | 169 | – | – | inactive |
| CheB38c | SID104182181 | 59.4 | 165 | – | – | inactive |
| Oatp33Eb | SID104182747 | 117 | 144 | – | – | inactive |
| sut4 | SID104187495 | 180 | 177 | – | – | inactive |
| CG8072 | SID104190752 | 88.5 | 91.9 | – | – | active |
| Arts + Apl | SID104190141 | 113 | 150 | – | – | inactive |
| ms(3)K81 | SID104194538 | 120 | 82.4 | – | – | inactive |
| CG42258 | SID104199533 | 67.7 | 124 | – | – | active |
| CG42258 | SID104199575 | 59 | 115 | – | – | active |
| CG42258 | SID104202518 | 122 | 97.1 | – | – | inactive |
| ND-ACP | SID104188516 | 99.2 | 155 | – | – | inactive |
| CG6928 | SID104190541 | 123 | 75.2 | – | – | inactive |
| CG32762 | SID104198090 | 154 | 95.2 | 6202 | 137 | inactive |
| CR31822 | SID104181302 | 189 | 95.8 | – | – | inactive |
| CG11113 | SID104185831 | 121 | 125 | – | – | inactive |
| Nup160 + RfC38 | SID104181789 | 71.5 | 92.2 | – | – | inactive |
| MtnD | SID104202110 | 124 | 212 | – | – | inactive |
| Sin3A | SID104187344 | 139 | 120 | – | – | inactive |
| Rint1 | SID104190802 | 137 | 90 | – | – | inactive |
| VhaAC45 | SID104186850 | 116 | 88.9 | – | – | inactive |
| Helz | SID104190864 | 122 | 103 | – | – | inactive |
| Tsp86D | SID104195399 | 153 | 73.9 | – | – | inactive |
| Cht11 | SID104198062 | 205 | 145 | – | – | inactive |
| Cyp4d8 | SID104190923 | 118 | 97.6 | – | – | inactive |

Next part (2 carried over from the part before).
| Target gene | PubChem SID | calcium signal, replicate 1 | calcium signal, replicate 2 | retest calcium signal, replicate 1 | retest calcium signal, replicate 2 | Call |
| --- | --- | --- | --- | --- | --- | --- |
| Cht11 | SID104198062 | 205 | 145 | – | – | inactive |
| Cyp4d8 | SID104190923 | 118 | 97.6 | – | – | inactive |
| Uev1A | SID104189555 | 88.1 | 76.9 | – | – | inactive |
| CG11638 | SID104197959 | 140 | 144 | – | – | inactive |
| CG11638 | SID104198432 | 122 | 177 | – | – | inactive |
| CG42675 | SID104191949 | 102 | 102 | – | – | inactive |
| CG42675 | SID104201506 | 93.9 | 147 | – | – | inactive |
| CG14823 | SID104189986 | 169 | 92.4 | – | – | inactive |
| CG3108 | SID104198072 | 130 | 78.7 | – | – | inactive |
| Jwa | SID104181840 | 115 | 105 | – | – | inactive |
| CG11741 | SID104194159 | 134 | 181 | – | – | inactive |
| Optix | SID104184870 | 121 | 138 | 5437 | 136 | inactive |
| Optix | SID104187276 | 172 | 117 | – | – | inactive |
| Optix | SID104201575 | 69.3 | 226 | – | – | inactive |
